# From patent publication US6907280B2, “Method and apparatus for objectively measuring pain, pain treatment and other related techniques” (The General Hospital Corporation, priority 1999, dated 2005)
# Test system: NAc brain region
# Conditions: 46° C. stimulus
structure (smiles),measurement,setting,value
CN1CC[C@]23c4c5ccc(O)c4O[C@H]2[C@@H](O)C=C[C@H]3[C@H]1C5 [morphine],Magnitude of NAc signal decrease to thermal pulse,"morphine 4 mg/70 kg i.v., heat plus saline 2%",~1%
same,Effect on negatively valenced NAc response to noxious heat,morphine vs saline curve,attenuates the response
